Source: ChEMBL document CHEMBL3988442, “University of Dundee, Small-Polar-MMV Screening Library” (2021).

Results are given as percent effect. The controls that fix the scale are not given in the record; negative values are as filed. This is an unselected part of the compounds tested. A dash means the value is not listed here; it may have been measured.

Mtb growth Cornell: 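Whole-cell assay for inhibitors of Mycobacterium tuberculosis growth, labelled Cornell in the record; the read-out is not stated. The concentration is filed as 10 mM, unlikely as a test dose, so the dose is not known. The record gives no direction; compounds strong in two other growth screens of this library score well above the rest, so higher reads as stronger inhibition. About 53,000 compounds were tested under these conditions; 1.7% (about 900) showed 50% or more at least once.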
Mtb heat-shock: 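Assay on Mycobacterium tuberculosis, filed only as a heat shock assay from Cornell; the read-out is not stated. The concentration is filed as 10 mM, unlikely as a test dose, so the dose is not known. Higher reads as stronger inhibition (inferred: compounds with an IC50 in retests scored well above the rest). Size under these conditions: about 69,000 compounds, about 930 of them at 50% or above in at least one test.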

| SMILES | Mtb growth Cornell | Mtb heat-shock |
|---|---|---|
| `NC(=O)CN1CCC(NC(=O)COc2ccc(Cl)c(Cl)c2)CC1` | - | -34.34% |
| `CCC(=O)N1CCN(C(=O)NCc2c(C)cc(C)cc2C)CC1` | - | -4.532% |
| `CCN(Cc1ccc2c(c1)OCO2)C(=O)CCc1c(C)nc(C)[nH]c1=O` | - | 1.427% |
| `O=C(O)[C@H]1OCC(=O)N(Cc2cccc(Cl)c2)[C@@H]1c1ccccc1` | 23.33% | 1.606% |
| `[H][C@@]12CS(=O)(=O)C[C@]1([H])N(C(=O)Cc1cccs1)CCN2C(=O)COC` | -15.17% | 2.918% |
| `Cc1nc2n(n1)CC(NCC(=O)NCCC1=CCCCC1)CC2` (stereo not shown) | 12.53% | -37.64% |
| `Cc1ccc(C(=O)NCCNC(=O)c2cncnc2C)cc1F` | -9.37% | 14.73% |
| `Nc1nc(CN2CCCCC2Cn2cncn2)nc2ccccc12` (stereo not shown) | - | -45.18% |
| `Cc1nocc1C(=O)N1CCOC2(COCCN(CC3CC3)C2)C1` (stereo not shown) | 1.363% | 13.9% |
| `CC(O)c1cccc(OCc2ccon2)c1` (stereo not shown) | - | -12.17% |
| `Cc1ccccc1-c1noc(CN2CCC(c3ccn[nH]3)CC2)n1` | 2.767% | -30.26% |
| `Fc1ccc(CN2CCOC(Cn3cncn3)C2)c2ncccc12` (stereo not shown) | - | 10.65% |
| `COc1ccc(CCNC(=O)Nc2cc(C)nn2C)cc1` | -12.8% | 8.379% |
| `COc1c(C2CCCN2C(=O)c2cccc(C)n2)c(C)nn1C` (stereo not shown) | -53.1% | 9.078% |
| `Cc1ncc(CNC(=O)Nc2cc(C(F)(F)F)c[nH]c2=O)s1` | -0.2998% | 29.5% |
| `Cc1nocc1C(=O)N1CCc2c(CN(C)C)nn(C)c2C1` | 28.23% | -0.6342% |
| `CCN(CC)Cc1ccc(C(=O)NC2CCc3cc(Br)ccc32)o1` (stereo not shown) | 18.27% | 11.74% |
| `CN1CCOC(CN(C(=O)CCc2cnn(C)c2)c2nccs2)C1` (stereo not shown) | -11.48% | -3.206% |
| `COc1cccc(CN(C)C(=O)CN2CCN(c3nccn3C)CC2)c1` | 9.209% | -14.2% |
| `CCOc1cc(C(=O)N(C)C)ccc1NC(=O)C(C)c1ccsc1` (stereo not shown) | -20.9% | -23.55% |
| `CN(C)Cc1nc(-n2cnc(C(=O)NCC3CC3)c2)n2ccccc12` | 16.24% | 9.849% |
| `COCCc1noc(CN(C)C(=O)c2cccc(N3CCCC3=O)c2)n1` | 11.64% | 11.45% |
| `CN1C(=O)C(c2cccnc2)CC12CCN(C(=O)c1ccc[nH]1)CC2` (stereo not shown) | -47.1% | -25.28% |
| `CCN(CC)C1(Cc2cc(COC)on2)COC1` | -14.91% | -7.908% |
| `C[S+]([O-])c1nncn1CC(=O)c1ccc2c(c1)CCO2` (stereo not shown) | 2.009% | -7.055% |
| `Cc1cnc(CNc2c(F)cccc2-n2cccn2)o1` | -10.15% | 105% |
| `CCc1nc(C)sc1CN1CCc2[nH]nc(-c3ccc(F)c(F)c3)c2C1` | 20.3% | 21.65% |
| `COc1ccc(-c2cc(=O)n3c(n2)CCCCC3)cc1` | 16.58% | -2.548% |
| `CNC(=O)Cn1cc(C#N)c(=O)c2cc(Br)ccc21` | -49.56% | -3.606% |
| `Cc1cc(NCc2cccc(C#N)c2)ccc1C(=O)N(C)C` | 22.32% | -19.32% |
| `CCCNC(=O)Nc1ncc(-c2cccnc2)s1` | 18.08% | -16.37% |
| `O=C(c1cscn1)N1CCC2(CCCN(CCOc3ccccc3)C2)C1` (stereo not shown) | 31.25% | -2.887% |
| `CCCC1COCCN1Cc1ccc(S(=O)(=O)NC)cc1` (stereo not shown) | -13.69% | -30.37% |
| `O=C(O)C(F)(F)F.O=C(c1ccc2ccc(N3CCN(CC4CC4)CC3)n2c1)N1CCCO1` | -0.9054% | -5.732% |
| `Cl.NCC(=O)N1CCC(c2ccnc(Nc3cc(C(F)(F)F)ccn3)n2)C1` (stereo not shown) | -6.535% | -2.931% |
| `O=c1c2cccc(F)c2ncn1CCN1CCOCC1` | -11.13% | -16.53% |
| `COc1ccc(-c2cn[nH]c2)cc1CNC1CCCC1` | 33.21% | 6.914% |
| `CCOCCN1CCC(c2cncc(C)n2)CC1` | 5.78% | -0.9277% |
| `Cc1noc(C)c1CN1CCCC2(CCN(C(=O)CC3CC3)C2)C1` (stereo not shown) | 9.049% | -18.33% |
| `Cc1nc(Cn2cncc(Br)c2=O)no1` | -24.33% | -0.8945% |
| `CCC(CNS(=O)(=O)c1cccc(C(=O)OC)c1)N1CCCC1` (stereo not shown) | 14.45% | 4.165% |
| `CCN(Cc1ccoc1)C(C(N)=O)c1ccc(Br)cc1` (stereo not shown) | 35.09% | -13.54% |
| `[H][C@@]12C[C@@H](OCc3ccccc3)C[C@]1([H])CN(C(=O)C1CCOCC1)C2` | 8.478% | -6.21% |

The first 4 entries again:

SMILES,Mtb growth Cornell,Mtb heat-shock
NC(=O)CN1CCC(NC(=O)COc2ccc(Cl)c(Cl)c2)CC1,-,-34.34%
CCC(=O)N1CCN(C(=O)NCc2c(C)cc(C)cc2C)CC1,-,-4.532%
CCN(Cc1ccc2c(c1)OCO2)C(=O)CCc1c(C)nc(C)[nH]c1=O,-,1.427%
O=C(O)[C@H]1OCC(=O)N(Cc2cccc(Cl)c2)[C@@H]1c1ccccc1,23.33%,1.606%